No constants are given. Whether binding was seen depends on the method and setting. In cells and extracts the contact can be indirect. Some binding calls cover weakened binding; strength is not graded here.
Columns and labels:
[1] = target: FLAG-miniTurbo-BLM (human) (UniProt P54132); experiment: co-IP; whole-cell extract of mT-FLAG-BLM HEK293 cells with or without doxycycline; anti-FLAG precipitation; blot for FLAG and RAD54L2
FLAG-BirA*-BLM (human) = FLAG-BirA*-BLM (human) (UniProt P54132); experiment: co-IP; nuclear extract (250 mM NaCl) of BirA*FLAG-BLM HEK293 cells with or without doxycycline; anti-FLAG precipitation; blot for BLM and RAD54L2

Sequences of proteins named here, by UniProt entry; tags and fusion partners are left off.
UniProt P54132: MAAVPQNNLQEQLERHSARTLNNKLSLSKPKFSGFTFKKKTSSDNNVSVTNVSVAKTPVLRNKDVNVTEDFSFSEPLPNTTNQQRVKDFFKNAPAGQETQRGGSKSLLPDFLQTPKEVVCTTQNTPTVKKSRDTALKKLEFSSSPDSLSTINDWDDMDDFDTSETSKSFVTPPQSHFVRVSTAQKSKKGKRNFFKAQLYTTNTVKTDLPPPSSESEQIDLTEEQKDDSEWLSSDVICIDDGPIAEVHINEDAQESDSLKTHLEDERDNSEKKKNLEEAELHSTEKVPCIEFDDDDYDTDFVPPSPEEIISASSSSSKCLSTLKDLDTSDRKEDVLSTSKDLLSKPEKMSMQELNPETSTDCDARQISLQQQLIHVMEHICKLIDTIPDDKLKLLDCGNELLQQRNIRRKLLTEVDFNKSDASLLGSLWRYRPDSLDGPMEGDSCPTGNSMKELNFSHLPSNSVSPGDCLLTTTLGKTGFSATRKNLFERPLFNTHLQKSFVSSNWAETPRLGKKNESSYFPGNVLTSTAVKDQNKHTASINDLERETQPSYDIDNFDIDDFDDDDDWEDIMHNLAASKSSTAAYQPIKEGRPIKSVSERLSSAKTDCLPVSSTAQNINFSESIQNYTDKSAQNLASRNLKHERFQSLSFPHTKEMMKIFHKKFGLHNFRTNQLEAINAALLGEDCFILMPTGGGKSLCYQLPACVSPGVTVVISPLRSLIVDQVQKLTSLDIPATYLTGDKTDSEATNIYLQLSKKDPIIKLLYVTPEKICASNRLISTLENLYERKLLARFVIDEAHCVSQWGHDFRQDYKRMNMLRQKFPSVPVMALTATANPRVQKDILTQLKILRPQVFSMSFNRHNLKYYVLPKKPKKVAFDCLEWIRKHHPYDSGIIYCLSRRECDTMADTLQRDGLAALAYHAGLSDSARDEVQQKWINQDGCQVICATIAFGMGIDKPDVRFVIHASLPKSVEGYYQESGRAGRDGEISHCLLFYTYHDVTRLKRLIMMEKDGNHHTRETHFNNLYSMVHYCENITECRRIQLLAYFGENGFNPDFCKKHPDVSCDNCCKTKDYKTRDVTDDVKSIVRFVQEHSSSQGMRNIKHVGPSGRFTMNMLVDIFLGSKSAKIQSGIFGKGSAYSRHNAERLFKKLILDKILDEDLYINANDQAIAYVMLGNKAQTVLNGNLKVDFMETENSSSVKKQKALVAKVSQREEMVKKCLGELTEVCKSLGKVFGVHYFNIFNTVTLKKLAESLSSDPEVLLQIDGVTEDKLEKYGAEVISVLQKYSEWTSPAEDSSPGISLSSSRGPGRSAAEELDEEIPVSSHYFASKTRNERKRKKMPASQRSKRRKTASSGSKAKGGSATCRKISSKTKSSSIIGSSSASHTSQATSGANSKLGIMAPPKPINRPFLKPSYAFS

- binding [1]: binds
- binding (FLAG-BirA*-BLM (human)): binds
B1: RAD54L2 (protein, UniProt Q9Y4B4 1-1467)
chain: MSDESASGSDPDLDPDVELEDAEEEEEEEEVAVEECDRDDEEDLLDDPSLEGMCGTEHAQLGEDGQQPPRCTSTTSSQSEPSEQLRRHQGKNLASEDPKKKRAQKPSHMRRNIRKLLREDQLEPVTKAAQQEELERRKRLEQQRKDYAAPIPTVPLEFLPEEIALRASDGPQLPPRVLAQEVICLDSSSGSEDEKSSRDEVIELSSGEEDTLHIVDSSESVSEDDEEEEKGGTHVNDVLNQRDALGRVLVNLNHPPEEENVFLAPQLARAVKPHQIGGIRFLYDNLVESLERFKTSSGFGCILAHSMGLGKTLQVISFIDVLFRHTPAKTVLAIVPVNTLQNWLAEFNMWLPPPEALPADNKPEEVQPRFFKVHILNDEHKTMASRAKVMADWVSEGGVLLMGYEMYRLLTLKKSFATGRPKKTKKRSHPVIIDLDEEDRQQEFRREFEKALCRPGPDVVICDEGHRIKNCQASTSQALKNIRSRRRVVLTGYPLQNNLIEYWCMVDFVRPDFLGTRQEFSNMFERPILNGQCIDSTPQDVRLMRYRSHVLHSLLEGFVQRRGHTVLKIHLPAKEENVILVRLSKIQRDLYTQFMDRFRDCGSSGWLGLNPLKAFCVCCKIWNHPDVLYEALQKESLANEQDLDVEELGSAGTSARCPPQGTKGKGEDSTLASSMGEATNSKFLQGVGFNPFQERGNNIVTYEWAKDLLTNYQTGVLENSPKMVLLFHLIEESVKLGDKILVFSQSLSTLALIEEFLGKREVPCPPGTEGQGAQKWVRNISYFRLDGSTPAFERERLINQFNDPSNLTTWLFLLSTRAGCLGVNLIGANRVVVFDASWNPCHDAQAVCRVYRYGQKKPCYIYRLVADYTLEKKIYDRQISKQGMSDRVVDDLNPMLNFTRKEVENLLHFVEKEPAPQVSLNVKGIKESVLQLACLKYPHLITKEPFEHESLLLNRKDHKLTKAEKKAAKKSYEEDKRTSVPYTRPSYAQYYPASDQSLTSIPAFSQRNWQPTLKGDEKPVASVRPVQSTPIPMMPRHVPLGGSVSSASSTNPSMNFPINYLQRAGVLVQKVVTTTDIVIPGLNSSTDVQARINAGESIHIIRGTKGTYIRTSDGRIFAVRATGKPKVPEDGRMAASGSQGPSCESTSNGRHSASSPKAPDPEGLARPVSPDSPEIISELQQYADVAAARESRQSSPSTNAALPGPPAQLMDSSAVPGTALGTEPRLGGHCLNSSLLVTGQPCGDRHPVLDLRGHKRKLATPPAAQESSRRRSRKGHLPAPVQPYEHGYPVSGGFAMPPVSLNHNLTTPFTSQAGENSLFMGSTPSYYQLSNLLADARLVFPVTTDPLVPAGPVSSSSTATSVTASNPSFMLNPSVPGILPSYSLPFSQPLLSEPRMFAPFPSPVLPSNLSRGMSIYPGYMSPHAGYPAGGLLRSQVPPFDSHEVAEVGFSSNDDEDKDDDVIEVTGK

— PMC11894219
